18 compounds from PubChem BioAssay AID256 (DTP/NCI, 2004) can be followed below.

Each structure is given as a SMILES string. The list shows only some results of the screen, not a fair sample: it is rich in T/C values a quarter to a half above the control, in often repeated tests (any T/C) and in doses without a T/C. Other doses and runs of a compound stand elsewhere. T/C is the treated group as % of the vehicle group. Some doses have a count of surviving animals in place of a T/C: the source files T/C as zero there, which appears to mark a toxic dose or a test without result, not a measured value. Some doses without a T/C left all or most animals alive at the check, yet need not have been tolerated: the source hardly ever lists a survival T/C far under the control, and the zero likely stands for such cases as well. Survivors were counted at the toxicity check, usually on the fifth day, unless a day is given; later deaths do not show. Schedule codes are those of the source, taken here to give the interval after Q, in days (D) or hours (H), and the number of doses after X. For survival time, this PubChem deposit counts one and a half times the control or more as active, and values a quarter to a half above the control carry no call in these data; other NCI protocols may use other cut-offs. Some entries hold several experiments; the values are given in rising order. Marks such as (2×) give the number of equal values in this list. Some T/C values carry the count of animals alive at the toxicity check (mostly the fifth day); without a count, all were alive then.

For the test, the system named is CD2F1 mice, L1210 leukemia ip, survival T/C. The test is described as follows: NCI In Vivo Anticancer Drug Screen. Data for tumor model L1210 Leukemia (intraperitoneal) in CD2F1 (CDF1) mice. The note with it: higher T/C = longer survival. An outline of the steps:
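In this screen, transplantable tumors were grown in mice given either the compound or its vehicle. Results were expressed as the treated measurement relative to the control measurement.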

[1] abbreviates: T/C endpoint: mean survival time, dose: 200.0 mg/kg/injection, schedule: Q01DX009 (ip), vehicle: Klucel (hydroxypropylcellulose) (HPC).
The mark [2] stands for this setting: T/C endpoint: mean survival time, dose: 100.0 mg/kg/injection, schedule: Q01DX009 (ip), vehicle: saline with Tween-80.
[3] abbreviates: T/C endpoint: mean survival time, dose: 400.0 mg/kg/injection, schedule: Q01DX009 (ip), vehicle: saline with Tween-80.
[4] abbreviates: T/C endpoint: mean survival time, dose: 400.0 mg/kg/injection, schedule: Q04DX003 (ip), vehicle: saline with Tween-80.
Setting [5] is: T/C endpoint: mean survival time, dose: 100.0 mg/kg/injection, schedule: Q04DX003 (ip), vehicle: saline with Tween-80.
The mark [6] stands for this setting: T/C endpoint: mean survival time, dose: 200.0 mg/kg/injection, schedule: Q04DX003 (ip), vehicle: saline with Tween-80.
[7] abbreviates: T/C endpoint: mean survival time, dose: 200.0 mg/kg/injection, schedule: Q01DX009 (ip), vehicle: saline with Tween-80.

As for `CC1(C)CN(c2ccccc2)N(CN2CCOCC2)C1=O`, the survivor count (T/C endpoint: mean survival time, dose: 25.0 mg/kg/injection, schedule: Q01DX009 (ip), vehicle: Klucel (hydroxypropylcellulose) (HPC)) is 0 of 3; the survivor count (T/C endpoint: mean survival time, dose: 50.0 mg/kg/injection, schedule: Q01DX009 (ip), vehicle: Klucel (hydroxypropylcellulose) (HPC)) is recorded as 0 of 3; the survivor count (T/C endpoint: mean survival time, dose: 100.0 mg/kg/injection, schedule: Q01DX009 (ip), vehicle: Klucel (hydroxypropylcellulose) (HPC)) is reported as 0 of 3; the survivor count under setting [1] is listed as 0 of 3.

Consider `COc1ccc(OC)c(NC(=O)Oc2cccc(NC(C)=O)c2)c1`, for which, under setting [2], the survivor count is on record as 6 of 6. Moreover, the T/C under setting [3] was 140 % of control.

With `Cn1c(-c2ccccc2)cc(=O)cc1-c1ccccc1`, the survivor count under setting [4] was 2 of 6.

For `Nc1nc(N)c2cc(CNc3ccc(C(=O)NC(CC(=O)O)CC(=O)O)cc3)cnc2n1`, the T/C under setting [1] was 142 % of control. Further, where the note is “T/C endpoint: mean survival time, dose: 400.0 mg/kg/injection, schedule: Q01DX009 (ip), vehicle: Klucel (hydroxypropylcellulose) (HPC)”, the survivor count was 1 of 6.

For the compound `CC1CC1C(=O)O` (stereo not given), the survivor count (T/C endpoint: mean survival time, dose: 400.0 mg/kg/injection, schedule: Q04DX003 (ip), vehicle: saline) was 0 of 3.

For `Nc1c2c(nn1-c1ccccc1)C(=O)N(CCc1ccccc1)C2`, the survivor count is, setting by setting: under setting [5], 6 of 6; under setting [6], 6 of 6.

Turning to `COc1ccc(Cc2cncc3cc(OC)c(OC)cc23)cc1OC`, the survivor count (T/C endpoint: mean survival time, dose: 400.0 mg/kg/injection, schedule: Q01DX001 (ip), vehicle: saline) is reported as 1 of 6.

Consider `O=C(CC(=O)CC(O)(C(F)(F)F)C(F)(F)F)CC(O)(C(F)(F)F)C(F)(F)F`, for which the survivor count is, setting by setting: (T/C endpoint: mean survival time, dose: 20.0 mg/kg/injection, schedule: Q04DX003 (ip), vehicle: saline) 0 of 6; under setting [5], 0 of 6; under setting [6], 0 of 6; under setting [4], 0 of 6.

With `CCO/C=C1\SC(=S)N(Cc2ccccc2)C1=O`, the survivor count by setting is: (T/C endpoint: mean survival time, dose: 100.0 mg/kg/injection, schedule: Q01DX009 (ip), vehicle: other) 6 of 6; under setting [7], 5 of 6; under setting [3], 1 of 6.

With `Cc1[nH]c(=O)[nH]c(=O)c1N(CCF)CCCl`, the survivor count is given as 10 of 10 (T/C endpoint: mean survival time, dose: 39.0 mg/kg/injection, schedule: Q01DX009 (ip), vehicle: saline); 9 of 10 (T/C endpoint: mean survival time, dose: 65.0 mg/kg/injection, schedule: Q01DX009 (ip), vehicle: saline); 10 of 10 (T/C endpoint: mean survival time, dose: 65.0 mg/kg/injection, schedule: Q04DX003 (ip), vehicle: saline); 6 of 10 (T/C endpoint: mean survival time, dose: 108.0 mg/kg/injection, schedule: Q01DX001 (ip), vehicle: saline); 8 of 10 (T/C endpoint: mean survival time, dose: 108.0 mg/kg/injection, schedule: Q04DX003 (ip), vehicle: saline); 0 of 10 (T/C endpoint: mean survival time, dose: 128.0 mg/kg/injection, schedule: Q01DX001 (ip), vehicle: acid diluted with saline). Further, the survivor count is, setting by setting: (T/C endpoint: mean survival time, dose: 180.0 mg/kg/injection, schedule: Q01DX001 (ip), vehicle: saline) 0 of 10; (T/C endpoint: mean survival time, dose: 180.0 mg/kg/injection, schedule: Q04DX003 (ip), vehicle: saline) 3 of 10; (T/C endpoint: mean survival time, dose: 300.0 mg/kg/injection, schedule: Q01DX001 (ip), vehicle: saline) 0 of 10; (T/C endpoint: mean survival time, dose: 500.0 mg/kg/injection, schedule: Q01DX001 (ip), vehicle: saline) 0 of 10; (T/C endpoint: median survival time, dose: 2.0 mg/kg/injection, schedule: Q01DX009 (sc), vehicle: acid diluted with saline) 10 of 10; (T/C endpoint: median survival time, dose: 32.0 mg/kg/injection, schedule: Q03HX008 (oral), vehicle: acid diluted with saline) 2 of 10. Besides, the survivor count runs as follows: (T/C endpoint: median survival time, dose: 32.0 mg/kg/injection, schedule: Q03HX024 (oral), vehicle: acid diluted with saline) 5 of 10; (T/C endpoint: median survival time, dose: 64.0 mg/kg/injection, schedule: Q03HX008 (oral), vehicle: acid diluted with saline) 0 of 10; (T/C endpoint: median survival time, dose: 64.0 mg/kg/injection, schedule: Q03HX016 (oral), vehicle: acid diluted with saline) 0 of 10; (T/C endpoint: median survival time, dose: 128.0 mg/kg/injection, schedule: Q01DX001 (ip), vehicle: acid diluted with saline) 5 of 10; (T/C endpoint: median survival time, dose: 128.0 mg/kg/injection, schedule: Q03HX008 (oral), vehicle: acid diluted with saline) 0 of 10; (T/C endpoint: median survival time, dose: 128.0 mg/kg/injection, schedule: Q03HX016 (oral), vehicle: acid diluted with saline) 0 of 10. Moreover, the survivor count was 5 of 10 (T/C endpoint: median survival time, dose: 128.0 mg/kg/injection, schedule: Q08DX002 (ip), vehicle: acid diluted with saline); 0 of 10 (T/C endpoint: median survival time, dose: 256.0 mg/kg/injection, schedule: Q01DX001 (ip), vehicle: acid diluted with saline); 5 of 10 (T/C endpoint: median survival time, dose: 512.0 mg/kg/injection, schedule: Q08DX002 (oral), vehicle: acid diluted with saline); 0 of 10 (T/C endpoint: median survival time, dose: 1024.0 mg/kg/injection, schedule: Q01DX001 (oral), vehicle: acid diluted with saline); 0 of 10 (T/C endpoint: median survival time, dose: 1024.0 mg/kg/injection, schedule: Q08DX002 (oral), vehicle: acid diluted with saline). Besides, the T/C by setting is: (T/C endpoint: mean survival time, dose: 39.0 mg/kg/injection, schedule: Q04DX003 (ip), vehicle: saline) 126 % of control; (T/C endpoint: mean survival time, dose: 128.0 mg/kg/injection, schedule: Q01DX001 (ip), vehicle: saline) 128 [8 of 10 alive] and 147 % of control [8 of 10 alive]; (T/C endpoint: median survival time, dose: 32.0 mg/kg/injection, schedule: Q01DX009 (ip), vehicle: acid diluted with saline) 130 % of control; (T/C endpoint: median survival time, dose: 32.0 mg/kg/injection, schedule: Q01DX009 (sc), vehicle: acid diluted with saline) 128 % of control; (T/C endpoint: median survival time, dose: 32.0 mg/kg/injection, schedule: Q03HX016 (oral), vehicle: acid diluted with saline) 131 % of control [8 of 10 alive]; (T/C endpoint: median survival time, dose: 128.0 mg/kg/injection, schedule: Q01DX009 (oral), vehicle: acid diluted with saline) 125 % of control.

For `O=C(c1ccccc1)C(C(c1ccccc1)N1CCOCC1)N1CCOCC1` (stereo not given), the survivor count under setting [2] is 6 of 6.

Regarding `O=C1OC(=O)C2C3C=CC(C4C=CC43)C12` (stereo not given), the survivor count (T/C endpoint: mean survival time, dose: 400.0 mg/kg/injection, schedule: Q01DX001 (ip), vehicle: saline with Tween-80) was 0 of 6.

Regarding `CCN1CCN(CC)C1c1ccccc1`, the survivor count under setting [3] was 3 of 6.

As for `O=C(Nc1nncs1)c1cccs1`, the T/C reads like this: under setting [7], 125 % of control; under setting [3], 133 % of control; (T/C endpoint: median survival time, dose: 50.0 mg/kg/injection, schedule: Q01DX009 (ip), vehicle: saline with Tween-80) 97 (2×), 101, 109 % of control; (T/C endpoint: median survival time, dose: 100.0 mg/kg/injection, schedule: Q01DX009 (ip), vehicle: saline with Tween-80) 98 (3×), 105, 106, 121 % of control; (T/C endpoint: median survival time, dose: 200.0 mg/kg/injection, schedule: Q01DX009 (ip), vehicle: saline with Tween-80) 103, 104, 106, 117, 121, 123 % of control; (T/C endpoint: median survival time, dose: 400.0 mg/kg/injection, schedule: Q01DX009 (ip), vehicle: saline with Tween-80) 120, 125, 135, 136, 147, 164 % of control. Also, under “T/C endpoint: median survival time, dose: 800.0 mg/kg/injection, schedule: Q01DX009 (ip), vehicle: saline with Tween-80”, the T/C was 123 [5 of 6 alive], 135, 139, 144 [5 of 6 alive], 170 % of control (2×).

As for `CC1(C)N=C(N)N=C(N)N1c1cccc(CCCc2ccccc2)c1`, the survivor count by setting is: (T/C endpoint: mean survival time, dose: 12.5 mg/kg/injection, schedule: Q01DX001 (ip), vehicle: saline) 3 of 3; (T/C endpoint: mean survival time, dose: 25.0 mg/kg/injection, schedule: Q01DX001 (ip), vehicle: saline) 1 of 3.

As for `Brc1ccc(C[N+]23CN4CN(CN(C4)C2)C3)cc1`, under setting [3], the survivor count was 0 of 6.

As for `CCSCCNC1=C(C)C(=O)C2=C(C1=O)[C@H](COC(N)=O)[C@]1(OC)[C@@H]3N[C@@H]3CN21`, where the note is “T/C endpoint: mean survival time, dose: 12.0 mg/kg/injection, schedule: Q01DX001 (ip), vehicle: distilled water + Tween-80”, the T/C was 137 % of control. For the setting “T/C endpoint: mean survival time, dose: 48.0 mg/kg/injection, schedule: Q01DX001 (ip), vehicle: distilled water + Tween-80”, the survivor count is 1 of 6.

In the case of `CCOc1ccc(Cl)cc1`, under setting [7], the survivor count is 3 of 6.
